This is an account of results in doi:10.1101/2022.01.26.477890.

The target in assay [1] is FLAG-STREP-tagged P. putida histidine kinase (PP_3835) (Pseudomonas putida KT2440) (UniProt Q88G90). Description: pull-down.
In assay [2] the target is P. putida KT2440 histidine kinase (two-hybrid fusion) (Pseudomonas putida KT2440) (UniProt Q88G90). The experiment in a line: two-hybrid.

No constants are given. Whether binding was seen depends on the method and setting. A result given as binding can be weak or reduced; the word gives no strength. For some assays here: In cells and extracts the contact can be indirect.

For “His10Smt3-KaiC P. putida KT2440 (from UniProt Q88G91)”, the binding result in assay [1] is reported as “binds”.

For the substance “P. putida KT2440 KaiC homolog (two-hybrid fusion) (from UniProt Q88G91)”, the binding result in assay [2] is reported as “binds weakly”.
